“Also recorded” adds a separate entry of the source. At least one compound was matched to its structure with a doubt left.
How the values were obtained:
[1] = tested on: E. coli transcribing antisense RNA to rplL and rplJ (AS-rplL/J); format: cell-based; details: statistically significant decrease in the IC50 value in the presence of inducer (IPTG)
Protocol: The effectiveness of the above assays was validated using proliferation-required genes from E. coli which were identified using procedures similar to those described above. Antibiotics of various chemical classes and modes of action were purchased from Sigma Chemicals (St. Louis, Mo.). Stock solutions were prepared by dissolving each antibiotic in an appropriate aqueous solution based on information provided by the manufacturer. The final working solution of each antibiotic contained no more than 0.2% (w/v) of any organic solvent. To determine their potency against a bacterial strain engineered for transcription of an antisense comprising a nucleotide sequence complementary to a proliferation-required 50S ribosomal protein, each antibiotic was serially diluted two- or three-fold in growth medium supplemented with the appropriate antibiotic for maintenance of the antisense construct. At least ten dilutions were prepared for each antibiotic. 25 μL aliquots of each dilution were transferred to discrete wells of a 384-well microplate (the assay plate) using a multi-channel pipette. Quadruplicate wells were used for each dilution of an antibiotic under each treatment condition (plus and minus inducer). Each assay plate contained twenty wells for cell growth controls (growth medium replacing antibiotic), ten wells for each treatment (plus and minus inducer, in this example IPTG). Assay plates were usually divided into the two treatments: half the plate containing induced cells and an appropriate concentrations of inducer (in this example IPTG) to maintain the state of induction, the other half containing non-induced cells in the absence of IPTG.
Cells for the assay were prepared as follows. Bacterial cells containing a construct, from which transcription of antisense nucleic acid comprising a nucleotide sequence complementary to rplL and rplJ (AS-rplL/J), which encode proliferation-required 50S ribosomal subunit proteins, is inducible in the presence of IPTG, were grown into exponential growth (OD600 0.2 to 0.3) and then diluted 1:100 into fresh medium containing either 400 μM or 0 μM inducer (IPTG). […] The plate was then loaded into a plate reader, incubated at constant temperature, and cell growth was monitored in each well by the measurement of light scattering at 595 nm. Growth was monitored every 5 minutes until the cell culture attained a stationary growth phase. For each concentration of antibiotic, a percentage inhibition of growth was calculated at the time point corresponding to mid-exponential growth for the associated control wells (no antibiotic, plus or minus IPTG). For each antibiotic and condition (plus or minus IPTG), a plot of percent inhibition versus log of antibiotic concentration was generated and the IC50 determined.

[2] = tested on: E. coli transcribing IPTG-inducible antisense clones; test: Cell-based assay: antibiotic sensitivity of E. coli transcribing antisense to ribosomal protein genes or to genes not involved in protein synthesis (FIGS. 8, 9); design: species or system Escherichia coli
Excerpt: The effectiveness of the above cell-based assay was validated using constructs transcribing antisense RNA to the proliferation required Escherichia coli genes rplL, rplJ, and rplW encoding ribosomal proteins L7/L12, L10 and L23 respectively. These proteins are essential components of the protein synthesis apparatus of the cell and as such are required for proliferation. These constructs were used to test the effect of antisense transcription on cell sensitivity to antibiotics known to bind to the ribosome and thereby inhibit protein synthesis. Constructs transcribing antisense RNA to several other genes (elaD, visC, yohH, and atpE/B), the products of which are not involved in protein synthesis were used for comparison.
First, pLex5BA (Krause et al., J. Mol. Biol. 274: 365 (1997), the disclosure of which is incorporated herein by reference in its entirety) vectors containing antisense constructs to either rplW or to elaD were introduced into separate E. coli cell populations. Vector introduction is a technique well known to those of ordinary skill in the art. The vectors of this example contain IPTG inducible promoters that drive the transcription of the antisense RNA in the presence of the inducer. However, those skilled in the art will appreciate that other inducible promoters may also be used. Suitable vectors are also well known in the art. For example, a number of promoters useful for nucleic acid transcription (including the nucleic acids described herein) in Enterococcus faecalis, Staphylococcus aureus as well as other Gram positive organisms are described in U.S. patent application Ser. No. 10/032,393, filed Dec. […]
The cell populations containing vectors producing AS-elaD or AS-rplW were exposed to a range of IPTG concentrations in liquid medium to obtain the growth inhibitory dose curve for each clone (FIG. 7). First, seed cultures were grown to a particular turbidity measured by the optical density (OD) of the growth solution. […] The cells were grown for up to 15 hours and the extent of growth was determined by measuring the optical density of the cultures at 600 nm. […]

Compound | Sensitivity Increased? [1] | sensitivity to antibiotics which do not inhibit protein synthesis ([2]; clone transcribing antisense to rplL and rplJ (AS-rplL/J)) | sensitivity to tetracycline (tetracycline IC50 with versus without IPTG) ([2]; cells expressing antisense to genes not involved in protein synthesis (AS-atpB/E, AS-visC, AS-elaD, AS-yohH)) | sensitivity to tetracycline (tetracycline IC50 with versus without IPTG) ([2]; cells transcribing AS-rplL or AS-rplW (ribosomal proteins L7/L12, L23), IPTG giving 20% and 50% growth inhibition)
CC1COc2c(N3CCN(C)CC3)c(F)cc3c(=O)c(C(=O)O)cn1c23 (stereo not shown) [Ofloxacin] | No | does not show increased sensitivity | – | –
CN(C)c1ccc(O)c2c1C[C@H]1C[C@H]3[C@H](N(C)C)C(O)=C(C(N)=O)C(=O)[C@@]3(O)C(O)=C1C2=O [Minocycline] | Yes | – | – | –
C[C@H]1c2cccc(O)c2C(=O)C2=C(O)[C@]3(O)C(=O)C(C(N)=O)=C(O)[C@@H](N(C)C)[C@@H]3[C@@H](O)[C@@H]21 [Doxycycline] | Yes | – | – | –
CN(C)[C@@H]1C(O)=C(C(N)=O)C(=O)[C@@]2(O)C(O)=C3C(=O)c4c(O)cccc4[C@@](C)(O)[C@H]3C[C@@H]12 [Tetracycline] | Yes | – | much less sensitive; also recorded: did not show the same increased sensitivity | increased sensitivity

From patent US20050026189A1, “Microbial operons” (priority 2003, published 2005)
